From ChEMBL document CHEMBL1649534, “A balancing act: efflux/influx in mycobacterial drug resistance” (2009) come the findings set out here.

SMILES strings stand for the structures.

The assay has as its system Mycobacterium tuberculosis. The assay is described as follows: Antibacterial activity against drug-resistant Mycobacterium tuberculosis clinical isolates. The class given is functional.

As a reminder, the MIC is the lowest concentration found to suppress growth. Higher therefore signals weaker potency. The compound `NNC(=O)c1ccncc1` [ISONIAZID] yielded a minimum inhibitory concentration (MIC) above 256 µg/mL.
